In paper doi:10.1101/2022.04.06.487280 one finds binding data, which are given here for four molecules.

Chains of the proteins cited; added tags and fusions are not shown.
UniProt P09874: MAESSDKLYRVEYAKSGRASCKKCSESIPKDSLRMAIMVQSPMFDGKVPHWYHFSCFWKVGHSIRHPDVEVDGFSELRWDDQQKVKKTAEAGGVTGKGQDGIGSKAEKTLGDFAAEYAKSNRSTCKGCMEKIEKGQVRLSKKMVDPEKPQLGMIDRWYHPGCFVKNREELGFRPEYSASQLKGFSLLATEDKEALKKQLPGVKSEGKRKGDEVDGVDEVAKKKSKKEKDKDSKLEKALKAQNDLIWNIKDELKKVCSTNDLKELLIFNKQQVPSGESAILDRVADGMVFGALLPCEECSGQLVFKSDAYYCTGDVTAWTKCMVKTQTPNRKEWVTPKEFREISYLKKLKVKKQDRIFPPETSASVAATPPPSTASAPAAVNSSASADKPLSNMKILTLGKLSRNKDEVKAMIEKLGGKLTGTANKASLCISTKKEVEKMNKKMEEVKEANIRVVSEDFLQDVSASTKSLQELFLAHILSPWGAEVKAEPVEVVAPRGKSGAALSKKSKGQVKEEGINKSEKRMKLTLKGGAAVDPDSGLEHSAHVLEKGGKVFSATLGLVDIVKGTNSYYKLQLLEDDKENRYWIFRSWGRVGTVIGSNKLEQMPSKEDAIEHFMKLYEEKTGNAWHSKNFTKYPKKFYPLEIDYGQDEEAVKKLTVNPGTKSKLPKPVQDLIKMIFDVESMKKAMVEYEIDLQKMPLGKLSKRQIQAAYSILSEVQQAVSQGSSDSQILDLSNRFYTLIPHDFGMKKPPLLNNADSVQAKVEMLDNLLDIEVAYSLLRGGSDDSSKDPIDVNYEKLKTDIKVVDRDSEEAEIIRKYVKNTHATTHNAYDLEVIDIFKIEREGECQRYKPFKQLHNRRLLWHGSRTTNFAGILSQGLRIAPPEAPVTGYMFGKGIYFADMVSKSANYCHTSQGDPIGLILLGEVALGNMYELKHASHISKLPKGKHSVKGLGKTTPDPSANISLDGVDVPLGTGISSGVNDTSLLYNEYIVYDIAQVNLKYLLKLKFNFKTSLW

These are yes or no findings as the source states them, for the method shown. Binding seen in cells or lysates may run through a third protein. Some binding calls cover weakened binding; strength is not graded here. Sequences can lack the tags named with a protein.

Assay in all cases: co-IP
The target in assay [1] is poly (ADP-ribose) polymerase-1 (human (endogenous in SH-SY5Y)) (UniProt P09874).
The target of assay [2] is T1, aminoacyl-tRNA synthetase interacting multifunctional protein 2, myc-tagged or GFP-tagged, transfected, Q13155.
T1 chain: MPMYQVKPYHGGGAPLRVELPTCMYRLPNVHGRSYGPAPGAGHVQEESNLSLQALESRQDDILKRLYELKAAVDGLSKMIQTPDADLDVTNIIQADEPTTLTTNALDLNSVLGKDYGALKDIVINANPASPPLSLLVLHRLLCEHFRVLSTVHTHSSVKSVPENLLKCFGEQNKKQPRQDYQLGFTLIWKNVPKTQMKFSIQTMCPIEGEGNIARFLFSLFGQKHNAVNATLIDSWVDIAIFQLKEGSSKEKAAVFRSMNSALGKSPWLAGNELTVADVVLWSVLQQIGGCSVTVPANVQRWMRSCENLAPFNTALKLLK
As to conditions: remark: other sources report otherwise.

In assay [3] the target is DX2, splice variant of AIMP2 lacking exon 2, myc-tagged or GFP-tagged, transfected (UniProt Q13155).
Assay [4] addresses T2, aminoacyl-tRNA synthetase interacting multifunctional protein 2, myc-tagged or GFP-tagged, transfected (UniProt Q13155).
T2 sequence: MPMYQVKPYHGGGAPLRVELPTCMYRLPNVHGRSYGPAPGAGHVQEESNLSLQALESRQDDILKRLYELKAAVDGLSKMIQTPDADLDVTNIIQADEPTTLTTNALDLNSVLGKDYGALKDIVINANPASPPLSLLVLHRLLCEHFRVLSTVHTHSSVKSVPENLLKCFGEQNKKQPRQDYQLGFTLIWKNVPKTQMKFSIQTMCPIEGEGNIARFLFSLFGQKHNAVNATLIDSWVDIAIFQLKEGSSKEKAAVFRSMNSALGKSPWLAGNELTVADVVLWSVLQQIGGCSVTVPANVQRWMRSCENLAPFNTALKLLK

B1: aminoacyl-tRNA synthetase interacting multifunctional protein 2, myc-tagged or GFP-tagged, transfected (protein, UniProt Q13155 1-320)
chain: MPMYQVKPYHGGGAPLRVELPTCMYRLPNVHGRSYGPAPGAGHVQEESNLSLQALESRQDDILKRLYELKAAVDGLSKMIQTPDADLDVTNIIQADEPTTLTTNALDLNSVLGKDYGALKDIVINANPASPPLSLLVLHRLLCEHFRVLSTVHTHSSVKSVPENLLKCFGEQNKKQPRQDYQLGFTLIWKNVPKTQMKFSIQTMCPIEGEGNIARFLFSLFGQKHNAVNATLIDSWVDIAIFQLKEGSSKEKAAVFRSMNSALGKSPWLAGNELTVADVVLWSVLQQIGGCSVTVPANVQRWMRSCENLAPFNTALKLLK
Consider B1, for which, in assay [1], the binding entry was “binds”.

B2: AIMP2 in SH-SY5Y cells transfected with DX2 vector or DX2 siRNA (protein, UniProt Q13155 1-320)
chain: MPMYQVKPYHGGGAPLRVELPTCMYRLPNVHGRSYGPAPGAGHVQEESNLSLQALESRQDDILKRLYELKAAVDGLSKMIQTPDADLDVTNIIQADEPTTLTTNALDLNSVLGKDYGALKDIVINANPASPPLSLLVLHRLLCEHFRVLSTVHTHSSVKSVPENLLKCFGEQNKKQPRQDYQLGFTLIWKNVPKTQMKFSIQTMCPIEGEGNIARFLFSLFGQKHNAVNATLIDSWVDIAIFQLKEGSSKEKAAVFRSMNSALGKSPWLAGNELTVADVVLWSVLQQIGGCSVTVPANVQRWMRSCENLAPFNTALKLLK
Turning to B2, in assay [1], the binding result is given as “binds”.

B3: aminoacyl-tRNA synthetase interacting multifunctional protein 2, myc-tagged or GFP-tagged, transfected, Q13155 1-320 (protein)
chain: MPMYQVKPYHGGGAPLRVELPTCMYRLPNVHGRSYGPAPGAGHVQEESNLSLQALESRQDDILKRLYELKAAVDGLSKMIQTPDADLDVTNIIQADEPTTLTTNALDLNSVLGKDYGALKDIVINANPASPPLSLLVLHRLLCEHFRVLSTVHTHSSVKSVPENLLKCFGEQNKKQPRQDYQLGFTLIWKNVPKTQMKFSIQTMCPIEGEGNIARFLFSLFGQKHNAVNATLIDSWVDIAIFQLKEGSSKEKAAVFRSMNSALGKSPWLAGNELTVADVVLWSVLQQIGGCSVTVPANVQRWMRSCENLAPFNTALKLLK
For B3, in assay [2], the binding entry is reported as “binds”.

B4: DX2, splice variant of AIMP2 lacking exon 2, myc-tagged or GFP-tagged, transfected (protein, UniProt Q13155-2 1-251)
chain: MPMYQVKPYHGGGAPLRVELPTCMYRLPNVHGRSYGPAPGAGHVQDYGALKDIVINANPASPPLSLLVLHRLLCEHFRVLSTVHTHSSVKSVPENLLKCFGEQNKKQPRQDYQLGFTLIWKNVPKTQMKFSIQTMCPIEGEGNIARFLFSLFGQKHNAVNATLIDSWVDIAIFQLKEGSSKEKAAVFRSMNSALGKSPWLAGNELTVADVVLWSVLQQIGGCSVTVPANVQRWMRSCENLAPFNTALKLLK
As to B4, the binding entry is reported as “binds weakly” in assay [3], “binds” in assay [1] and “binds” in assay [4].
